Results are given in words; binding and its absence hold for the method and conditions named. In cells and extracts the contact can be indirect. Some binding calls cover weakened binding; strength is not graded here. For some assays here: Tags and fused reporters may be left off the sequences shown.

The chains behind the UniProt entries cited, without tags or fusion partners. Residues count along the entry.
UniProt Q03135: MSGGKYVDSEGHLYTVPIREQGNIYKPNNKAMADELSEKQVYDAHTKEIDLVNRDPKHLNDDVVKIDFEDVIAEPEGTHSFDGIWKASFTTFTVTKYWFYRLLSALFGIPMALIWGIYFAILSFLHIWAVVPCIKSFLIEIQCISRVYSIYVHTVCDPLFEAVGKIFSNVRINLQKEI
UniProt Q8CBF3, residues 18-984: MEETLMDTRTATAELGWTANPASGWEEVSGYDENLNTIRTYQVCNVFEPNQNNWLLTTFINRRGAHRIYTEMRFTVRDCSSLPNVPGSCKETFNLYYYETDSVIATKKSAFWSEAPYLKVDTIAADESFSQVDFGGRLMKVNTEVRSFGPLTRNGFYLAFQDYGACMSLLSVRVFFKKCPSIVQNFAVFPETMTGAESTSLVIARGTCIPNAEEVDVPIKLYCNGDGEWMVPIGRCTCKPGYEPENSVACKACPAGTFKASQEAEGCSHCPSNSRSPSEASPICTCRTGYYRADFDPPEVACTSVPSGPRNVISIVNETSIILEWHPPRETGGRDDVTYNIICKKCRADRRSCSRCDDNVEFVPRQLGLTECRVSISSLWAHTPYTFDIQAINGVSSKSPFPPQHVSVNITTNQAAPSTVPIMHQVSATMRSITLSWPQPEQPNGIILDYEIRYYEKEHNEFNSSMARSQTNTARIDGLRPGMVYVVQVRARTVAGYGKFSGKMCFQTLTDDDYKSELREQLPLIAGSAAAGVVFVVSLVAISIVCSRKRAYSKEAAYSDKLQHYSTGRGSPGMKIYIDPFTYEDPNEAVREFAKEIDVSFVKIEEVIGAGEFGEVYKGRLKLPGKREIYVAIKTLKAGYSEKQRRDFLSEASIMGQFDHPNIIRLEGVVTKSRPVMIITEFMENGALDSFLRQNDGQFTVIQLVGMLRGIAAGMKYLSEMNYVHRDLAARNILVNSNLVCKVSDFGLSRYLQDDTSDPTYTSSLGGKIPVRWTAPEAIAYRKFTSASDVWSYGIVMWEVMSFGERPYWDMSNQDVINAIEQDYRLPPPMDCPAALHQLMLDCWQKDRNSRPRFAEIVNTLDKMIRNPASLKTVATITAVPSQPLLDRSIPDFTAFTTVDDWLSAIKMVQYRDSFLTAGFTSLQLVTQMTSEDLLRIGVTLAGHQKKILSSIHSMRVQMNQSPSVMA

The target in experiment [1] is WT-Cav-1-CFP (caveolin-1, C-terminal CFP-tagged) (UniProt Q03135). Briefly: FRET or BRET.
For experiment [2], the target named is WT-EphB1-YFP (mouse EphB1, C-terminal YFP-tagged) (mouse) (UniProt Q8CBF3). The experiment is described as follows: FRET or BRET.

Regarding “WT-EphB1-YFP (mouse EphB1, C-terminal YFP-tagged) (from UniProt Q8CBF3 18-984) (receptor)”, the binding entry in experiment [1] is recorded as “binds”.

B1: Mouse recombinant EphrinB1-Fc chimera (Fc fusion, UniProt P52795 25-236)
chain: ATPLAKNLEPVSWSSLNPKFLSGKGLVIYPKIGDKLDIICPRAEAGRPYEYYKLYLVRPEQAAACSTVLDPNVLVTCNKPHQEIRFTIKFQEFSPNYMGLEFKKYHDYYITSTSNGSLEGLENREGGVCRTRTMKIVMKVGQDPNAVTPEQLTTSRPSKESDNTVKTATQAPGRGSQGDSDGKHETVNQEEKSGPGAGGGGSGDSDSFFNSK
For the molecule B1, the binding entry in experiment [2] is reported as “binds”.

These data come from publication doi:10.1101/619510.
